In US20210220241A1, “Body Sculpting” (Sculpt B.V., priority 2014, published 2021):
Some entries share one result that the patent states for a list of compounds. Some compounds share one range, which may span the group rather than tell each member.

Test system: human volunteers
Experiment: Application on human volunteers: waistline and skinfold (Example 10)
Assay type: in vivo
Conditions: single individual, hydrogel on belly and hips, same molar concentration, after 21 days
Protocol: For abdominal/hip experiments 2 male volunteers […] (BMI 25.5 and 28 resp.) monitored belly circumference, and skinfold at belly and hip on a daily basis (8 am mornings). Blood pressure and body weight was monitored daily. […] Hydrogel was applied daily or twice daily as indicated using a 5 ml syringe to measure volume. For abdominal experiments, the indicated volume of hydrogel was applied on the belly around the belly button in a radius of 10 cm. The same volume was applied for hip areas. For leg experiments, 2.5 ml was applied on each leg. Skinfold was assessed by measuring thickness of skin at hips and belly 4 cm from belly button using a skinfold measuring device ([…]-120). […] Experiments are the average of two experiments (n=2). […] Experiments are an average of 2 or 3 runs (n=2-3).

CCCCCCCCCC(=O)Oc1ccc(C(O)CN)cc1 (stereo not drawn) [octopamine decanoate, 4-(2-amino-1-hydroxyethyl)phenyl decanoate]
Decrease of waistline: 2-5%

CCCCC(=O)Oc1ccc(C(O)CN)cc1.Cl (stereo not drawn) [octopamine pentanoate, 4-(2-amino-1-hydroxyethyl)phenyl valeroate hydrochloride]
Decrease of waistline: 2-5%

CCCCCCCCCC(=O)Oc1ccc(C(O)CNC)cc1 (stereo not drawn) [synephrine decanoate, 4-(1-hydroxy-2-(methylamino)ethyl)phenyl decanoate]
Decrease of waistline: 2-5%
